The values that follow come from patent US9994813, “Role for the perlman syndrome exonuclease Dis3l2 in the Lin28-let-7 pathway” (Children's Medical Center Corporation).

Sequences of proteins named here, by UniProt entry; tags and fusion partners are left off. A change or cut given only in a name is not applied to a line headed by its entry.
UniProt B2RX14: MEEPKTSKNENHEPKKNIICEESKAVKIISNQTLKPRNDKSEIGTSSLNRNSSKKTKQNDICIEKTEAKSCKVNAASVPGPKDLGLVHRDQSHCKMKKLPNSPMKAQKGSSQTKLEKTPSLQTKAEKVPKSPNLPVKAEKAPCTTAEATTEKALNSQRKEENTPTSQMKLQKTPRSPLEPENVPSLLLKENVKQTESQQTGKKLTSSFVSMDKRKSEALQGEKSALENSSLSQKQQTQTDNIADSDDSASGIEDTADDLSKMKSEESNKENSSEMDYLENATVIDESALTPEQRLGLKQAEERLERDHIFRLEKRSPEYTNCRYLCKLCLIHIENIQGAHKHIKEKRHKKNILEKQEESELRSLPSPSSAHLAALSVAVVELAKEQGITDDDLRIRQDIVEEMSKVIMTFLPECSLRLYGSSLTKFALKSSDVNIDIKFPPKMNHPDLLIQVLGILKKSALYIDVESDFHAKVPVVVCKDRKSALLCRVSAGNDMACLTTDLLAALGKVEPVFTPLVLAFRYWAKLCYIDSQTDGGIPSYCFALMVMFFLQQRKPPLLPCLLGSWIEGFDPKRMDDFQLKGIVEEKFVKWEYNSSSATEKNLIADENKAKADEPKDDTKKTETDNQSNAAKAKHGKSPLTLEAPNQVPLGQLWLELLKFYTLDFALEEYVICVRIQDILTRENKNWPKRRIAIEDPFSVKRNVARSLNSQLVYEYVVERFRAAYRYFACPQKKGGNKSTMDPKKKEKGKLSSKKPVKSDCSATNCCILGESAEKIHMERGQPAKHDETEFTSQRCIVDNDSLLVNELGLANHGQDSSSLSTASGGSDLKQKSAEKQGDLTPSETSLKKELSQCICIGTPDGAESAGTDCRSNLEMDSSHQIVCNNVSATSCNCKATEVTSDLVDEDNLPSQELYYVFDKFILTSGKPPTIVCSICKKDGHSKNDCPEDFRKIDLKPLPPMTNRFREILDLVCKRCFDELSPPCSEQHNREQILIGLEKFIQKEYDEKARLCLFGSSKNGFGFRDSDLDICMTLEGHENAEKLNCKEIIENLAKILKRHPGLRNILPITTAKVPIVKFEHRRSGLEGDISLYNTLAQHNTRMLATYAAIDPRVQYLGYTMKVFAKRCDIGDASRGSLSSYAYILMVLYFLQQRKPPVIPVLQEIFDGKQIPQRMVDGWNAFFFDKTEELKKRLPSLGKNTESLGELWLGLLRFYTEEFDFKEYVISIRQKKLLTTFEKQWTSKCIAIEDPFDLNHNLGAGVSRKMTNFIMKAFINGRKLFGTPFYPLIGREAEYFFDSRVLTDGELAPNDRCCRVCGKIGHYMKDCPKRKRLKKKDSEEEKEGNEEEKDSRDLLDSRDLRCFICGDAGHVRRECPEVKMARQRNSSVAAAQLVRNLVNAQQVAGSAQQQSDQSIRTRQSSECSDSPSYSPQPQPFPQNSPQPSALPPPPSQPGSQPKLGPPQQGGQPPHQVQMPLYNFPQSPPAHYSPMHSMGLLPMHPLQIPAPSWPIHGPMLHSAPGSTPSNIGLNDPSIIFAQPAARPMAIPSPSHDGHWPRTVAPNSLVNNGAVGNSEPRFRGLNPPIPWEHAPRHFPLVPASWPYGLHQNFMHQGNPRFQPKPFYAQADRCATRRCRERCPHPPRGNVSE
UniProt Q9UPY3: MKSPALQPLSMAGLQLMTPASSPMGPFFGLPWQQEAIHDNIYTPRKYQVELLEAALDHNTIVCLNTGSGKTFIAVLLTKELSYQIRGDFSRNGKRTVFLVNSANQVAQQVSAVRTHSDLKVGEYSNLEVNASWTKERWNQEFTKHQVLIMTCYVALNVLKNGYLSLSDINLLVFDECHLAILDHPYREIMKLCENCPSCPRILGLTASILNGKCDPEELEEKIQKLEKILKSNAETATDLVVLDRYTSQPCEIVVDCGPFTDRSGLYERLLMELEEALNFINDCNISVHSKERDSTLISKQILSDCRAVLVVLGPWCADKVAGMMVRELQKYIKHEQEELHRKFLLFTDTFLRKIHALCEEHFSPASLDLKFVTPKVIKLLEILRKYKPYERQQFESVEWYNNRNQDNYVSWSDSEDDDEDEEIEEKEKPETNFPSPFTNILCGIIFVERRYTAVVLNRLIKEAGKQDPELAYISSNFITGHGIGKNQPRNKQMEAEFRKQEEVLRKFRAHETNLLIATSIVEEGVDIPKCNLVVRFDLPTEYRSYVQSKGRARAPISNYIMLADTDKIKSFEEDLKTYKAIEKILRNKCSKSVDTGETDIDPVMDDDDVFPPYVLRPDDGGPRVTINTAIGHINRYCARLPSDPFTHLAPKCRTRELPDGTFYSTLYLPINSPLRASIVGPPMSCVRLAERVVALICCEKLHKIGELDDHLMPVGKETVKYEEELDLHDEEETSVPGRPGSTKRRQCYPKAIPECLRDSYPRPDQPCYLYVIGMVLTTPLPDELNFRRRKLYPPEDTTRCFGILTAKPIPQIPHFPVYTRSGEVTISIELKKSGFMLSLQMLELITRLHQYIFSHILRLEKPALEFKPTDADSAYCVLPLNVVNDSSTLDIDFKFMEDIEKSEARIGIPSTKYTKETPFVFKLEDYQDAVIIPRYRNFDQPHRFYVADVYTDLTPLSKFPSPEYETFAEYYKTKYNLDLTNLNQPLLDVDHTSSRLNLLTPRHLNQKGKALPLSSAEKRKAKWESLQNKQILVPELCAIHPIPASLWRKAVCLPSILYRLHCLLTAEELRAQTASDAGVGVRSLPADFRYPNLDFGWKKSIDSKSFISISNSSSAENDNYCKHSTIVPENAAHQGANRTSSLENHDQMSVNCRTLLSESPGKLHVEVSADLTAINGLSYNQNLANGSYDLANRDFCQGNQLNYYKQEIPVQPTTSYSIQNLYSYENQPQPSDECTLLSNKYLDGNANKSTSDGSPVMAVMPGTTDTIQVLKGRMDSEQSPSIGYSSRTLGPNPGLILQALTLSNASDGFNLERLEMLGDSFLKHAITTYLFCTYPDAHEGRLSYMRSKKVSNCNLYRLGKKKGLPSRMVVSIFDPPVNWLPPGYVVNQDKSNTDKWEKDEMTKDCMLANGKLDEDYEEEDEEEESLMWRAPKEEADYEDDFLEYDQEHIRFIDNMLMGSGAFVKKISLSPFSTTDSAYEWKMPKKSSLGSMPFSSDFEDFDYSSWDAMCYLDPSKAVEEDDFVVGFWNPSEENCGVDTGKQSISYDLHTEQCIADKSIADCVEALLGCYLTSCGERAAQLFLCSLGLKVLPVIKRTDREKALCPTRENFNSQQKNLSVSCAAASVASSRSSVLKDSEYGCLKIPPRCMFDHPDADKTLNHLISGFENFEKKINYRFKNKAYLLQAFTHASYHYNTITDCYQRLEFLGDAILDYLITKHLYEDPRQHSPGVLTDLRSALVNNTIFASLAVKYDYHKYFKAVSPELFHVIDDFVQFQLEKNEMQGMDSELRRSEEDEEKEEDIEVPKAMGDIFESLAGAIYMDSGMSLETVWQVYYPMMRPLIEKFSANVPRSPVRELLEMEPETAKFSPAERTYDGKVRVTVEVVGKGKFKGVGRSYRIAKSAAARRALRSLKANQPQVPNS

Data set [1] concerns the target T1, Dis3l2 (Flag) (Mus musculus) (UniProt Q8CI75).
T1 sequence (looked up, limits assumed): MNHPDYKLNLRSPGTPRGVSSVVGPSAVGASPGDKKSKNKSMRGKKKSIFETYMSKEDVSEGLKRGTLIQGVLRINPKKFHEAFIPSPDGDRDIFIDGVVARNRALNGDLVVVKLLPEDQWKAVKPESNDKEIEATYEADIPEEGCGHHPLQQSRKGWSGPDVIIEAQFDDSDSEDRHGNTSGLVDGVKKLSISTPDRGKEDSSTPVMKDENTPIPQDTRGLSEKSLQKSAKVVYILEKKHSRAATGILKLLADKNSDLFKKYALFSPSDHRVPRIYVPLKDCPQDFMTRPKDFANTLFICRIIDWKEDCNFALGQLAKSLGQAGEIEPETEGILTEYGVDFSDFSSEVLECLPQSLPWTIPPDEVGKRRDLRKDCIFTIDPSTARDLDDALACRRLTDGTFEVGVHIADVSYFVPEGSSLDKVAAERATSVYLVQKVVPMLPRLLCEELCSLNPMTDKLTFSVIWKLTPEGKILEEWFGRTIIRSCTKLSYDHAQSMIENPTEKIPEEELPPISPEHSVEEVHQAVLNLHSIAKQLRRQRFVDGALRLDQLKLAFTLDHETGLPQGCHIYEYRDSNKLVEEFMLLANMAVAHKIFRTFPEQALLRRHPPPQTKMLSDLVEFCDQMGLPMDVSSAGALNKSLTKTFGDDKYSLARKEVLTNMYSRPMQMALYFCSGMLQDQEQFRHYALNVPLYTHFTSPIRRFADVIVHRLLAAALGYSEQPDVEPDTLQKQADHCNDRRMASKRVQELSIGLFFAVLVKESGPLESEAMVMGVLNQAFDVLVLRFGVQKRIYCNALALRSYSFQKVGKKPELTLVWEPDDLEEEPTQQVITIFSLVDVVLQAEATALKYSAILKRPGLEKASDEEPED
In words: enzyme reaction in vitro. The following applies: 0.05 mM MgCl2, 37 C, purified recombinant protein, protein details: Flag, immunopurified from V6.5 ESC or 293T, label: 5'-32P.

Data set [2] deals with Zcchc11 (endogenous) (Mus musculus) (UniProt B2RX14). In words: pull-down. The following applies: RNA-agarose extract, may be indirect via Lin28A, protein in an extract, protein details: P19 whole-cell extract, label: 5'-32P.
Data set [3] addresses T2, Lin28A (endogenous) (Mus musculus) (UniProt Q8K3Y3).
T2 sequence (looked up, limits assumed): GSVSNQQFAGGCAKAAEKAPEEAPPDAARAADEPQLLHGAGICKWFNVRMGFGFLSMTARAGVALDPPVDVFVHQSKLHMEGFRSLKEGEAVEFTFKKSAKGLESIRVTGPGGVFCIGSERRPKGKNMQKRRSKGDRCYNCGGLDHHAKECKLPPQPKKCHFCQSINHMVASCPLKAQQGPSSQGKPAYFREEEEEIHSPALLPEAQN
As to the kind of experiment: pull-down. The following applies: RNA-agarose, protein in an extract, protein details: P19 whole-cell extract, label: 5'-32P.

For data set [4], the target named is T3, Dis3l2 (endogenous) (Mus musculus) (UniProt Q8CI75).
T3 sequence (looked up, limits assumed): T1 sequence (looked up, limits assumed)
As to the kind of experiment: pull-down. Conditions: RNA-agarose, mass spec and Western, protein in an extract, protein details: P19 whole-cell extract, label: 5'-32P.

Data set [5] deals with T4, Lin28A (UniProt Q8K3Y3).
T4 sequence (looked up, limits assumed): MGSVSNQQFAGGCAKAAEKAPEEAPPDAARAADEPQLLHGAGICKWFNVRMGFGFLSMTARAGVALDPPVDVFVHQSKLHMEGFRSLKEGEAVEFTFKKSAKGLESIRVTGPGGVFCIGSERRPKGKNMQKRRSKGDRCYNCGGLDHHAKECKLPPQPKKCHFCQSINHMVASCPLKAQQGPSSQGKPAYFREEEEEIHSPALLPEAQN
As to the kind of experiment: EMSA. The following applies: positive control, binds the loop; purified recombinant protein; protein details: 6xHis, E. coli; label: 5'-32P.

The target in data set [6] is T5, Dis3l2 D389N (Mus musculus) (UniProt Q8CI75).
T5 sequence (looked up, limits assumed): T1 sequence (looked up, limits assumed) with D389N
In words: EMSA. Conditions: selective for uridylated RNA; 1 nM RNA, 50 mM Tris pH 7.6, 100 mM NaCl; purified recombinant protein; protein details: 6xHis, E. coli; label: 5'-32P.

The target in data set [7] is T6, Dis3l2 (recombinant 6xHis) (Mus musculus) (UniProt Q8CI75).
T6 sequence (looked up, limits assumed): T1 sequence (looked up, limits assumed)
In words: EMSA. Conditions: legend says recombinant Dis3l2; methods state catalytically inert 6xHis Dis3l2 used; purified recombinant protein; protein details: 6xHis, pETDuet-1, E. coli; label: 5'-32P.

The target in data set [8] is Dicer (UniProt Q9UPY3). As to the kind of experiment: enzyme reaction in vitro. The following applies: 3.2 mM MgCl2, 37 C, purified recombinant protein, protein details: Flag, insect cells, label: 5'-32P.
Data set [9] addresses T6, Dis3l2 (recombinant 6xHis) (Mus musculus). In words: enzyme reaction in vitro. Conditions: >10-fold more stable than +14U RNA; purified recombinant protein; protein details: 6xHis, pETDuet-1, E. coli; label: 5'-32P.

Numbering of substitutions follows the chain as printed. For part of these data: A weaker result is weaker than the reference pair of the same experiment. For part of these data: Where a protein sequence is shown, tags need not be part of it. Construct, isoform or probe ends are uncertain for at least one entry. For part of these data: No signal at the amounts used counts as a negative. For part of these data: Where cells or extracts were used, other partners may take part.

Take “UAGCUUAUCAGACUGAUGUUGACUGUUGAAUCUCAUGGCAACAGCAGUCGAUGGGCUGUC [mmu-pre-miR-21]”: the “activity on this sequence” value in data set [1] is “less active”.

Take “UGAGGUAGUAGGUUGUAUAGUUUUAGGGUCACACCCACCACUGGGAGAUAACUAUACAAUCUACUGUCUUUCC [mmu-pre-let-7a-1]”: the binding result in data set [2] is “binds”; in [3], “binds”; in data set [4], “no binding”; in [5], “binds”; in data set [6] it was “no binding”; in data set [7], “no binding”. Also, the “activity on this sequence” value is listed as “less active” in data set [1], “active” in [8] (processed to ~22 nt duplexes) and “less active” in data set [9].

On to “UGAGGUAGUAGGUUGUAUAGUUUUAGGGUCACACCCACCACUGGGAGAUAACUAUACAAUCUACUGUCUUUCCUUUUUUUUUUUUUU [mmu-pre-let-7a-1+14U]”, for which the binding result in data set [2] (variant of mmu-pre-let-7a-1), in data set [3] (variant of mmu-pre-let-7a-1) and in data set [4] (variant of mmu-pre-let-7a-1) was “binds” in each case. In addition, the “activity on this sequence” value is “active” in [1] (preferentially degraded, variant of mmu-pre-let-7a-1) and “less active” in [8] (poor substrate, variant of mmu-pre-let-7a-1).
